Reference: patent US6469137B1, “Myelopeptides and their therapeutic use” (Primamedic, Ltd, priority 1997, dated 2002)
At least one peptide structure holds a part that was inferred or is arguable (an end, a ring closure or a residue). Where a SMILES comes first, the peptide text is derived from it.

Key:
[1] = test system: Salmonella typhimurium 415; assay: Survival of mice infected with Salmonella typhimurium after MP-3 pre-treatment; type: in vivo; details: both doses, 0.5×10^−4 and 1×10^−6 g/mouse
[2] = test system: encephalomyocarditis virus (EMV); assay: Anti-viral activity in vitro, L929 cells infected by EMV; type: cell-based, mouse; details: for Concentration that completely abrogated destructive influence of the virus on L929 cells: pre-incubation 24 or 48 h
Protocol: The L929 mouse fibroblastoid cell line was maintained in vitro as described above. MP-3, MP-4, MP-5 and MP-6 were added into triplicate cultures using the following final concentrations: 500, 250, 125, 63, 31, 16, 8, 4, 2, 1, 0.5, 0.25 μg per 1 ml of culture. Ridostin was used as a control interferon-inducer.
24 or 48 h post-injection, the L929 cell cultures were infected by 100 TCID50 of EMV. During the next 24 h the viral infection caused dramatic damages in L929 cells. […] MP-5, by contrast, when added in a final concentration of 16 μg/ml or more, completely abrogated destructive influence of the virus on L929 cells. So did MP-6, when added at a concentration of 4 μg/ml or more. […] MP-4 also defended the L929 cells from the virus-induced damage, after 48 h exposure of the cells in the presence of 32 μg/ml (or higher concentration) of the preparation before their challenge by the virus.

[3] = test system: murine peritoneal macrophages; assay: Phagocytosis of opsonized SRBC by macrophages, NBT-test; type: cell-based, mice
HIV = HIV inhibition in MT4 cells in vitro; type: cell-based; details: for Influence on HIV replication: 0.1-100 μg/ml
L-41 human cell line = assay: Interferon induction in L-41 human cell line in vitro; type: cell-based; details: L-41 cells, 24 h
[4] = test system: healthy donor peripheral blood cell (PBC); assay: Interferon induction in healthy donor peripheral blood cell cultures in vitro; type: cell-based, human; details: 24 h
HL-60 cells = assay: Terminal differentiation of HL-60 leukaemia cells (3H/14C incorporation, morphology); type: cell-based, human

**Q.** Which results are given for `CC(C)C[C@H](N)C(=O)N[C@H](C(=O)N[C@@H](CS)C(=O)N[C@@H](Cc1ccc(O)cc1)C(=O)N1CCC[C@H]1C(=O)N[C@@H](CCC(N)=O)C(=O)O)C(C)C` [MP-3, LVCYPQ] (H-LVCYPQ-OH; N-terminus and C-terminus assumed)?
**A.** Protective effect [1]: pronounced protective effect; Protection of L929 cells from EMV damage ([2]; pre-incubation at 0.25-500 μg/ml, then 100 TCID50 of EMV): did not prevent the cell layers from extensive damage; Stimulation of macrophage phagocytosis ([3]; 10^−6 to 10^−18 g/ml): stimulates macrophage phagocytosis in a dose-dependent manner; Maximal stimulation of macrophage phagocytosis (level compared to control well) ([3]; doses of 10^−8-10^−7 g/ml, control = 100%): up to 250%; HIV replication (HIV; 1-5 μg/ml or higher, 7 days): completely stopped; Interferon production (L-41 human cell line; 1 μg/ml): induced an intensive production of interferon; Interferon production ([4]; 1 μg/ml): induced an intensive production of interferon

**Q.** With `CC[C@H](C)[C@H](NC(=O)[C@H](CCCNC(=N)N)NC(=O)[C@@H]1CCCN1C(=O)[C@H](CCCNC(=N)N)NC(=O)[C@@H](N)Cc1ccccc1)C(=O)N[C@@H](CCSC)C(=O)N[C@H](C(=O)N1CCC[C@H]1C(=O)O)[C@@H](C)O` [MP-4, FRPRIMTP] (H-FRPRIMTP-OH; N-terminus and C-terminus assumed) as the compound, how does the “Optimal dose for differentiation effect” value (HL-60 cells; HL-60 cells, 3H/14C incorporation ratio, 6th day) read?
**A.** The value was 0.1 to 5.0 µg/mL.

**Q.** And the Induction of differentiation (HL-60 cells; HL-60 cells, monocyte pathway)?
**A.** Its Induction of differentiation is “induces terminal differentiation”.

**Q.** And the “Mature forms (monocytes-macrophages) among blastoid cells” value (HL-60 cells; morphological analysis of HL-60 cells treated with MP-4)?
**A.** Its value is “about 60%”.

**Q.** What about the “Concentration that defended L929 cells from virus-induced damage” value ([2]; 48 h exposure before challenge with 100 TCID50 of EMV) of the same compound?
**A.** The value was no less than 32 µg/mL.

**Q.** And the “Inhibition of HIV replication” value (HIV; 10 μg/ml)?
**A.** The value was 50%.

**Q.** What about the Interferon production (L-41 human cell line; 0.01 μg/ml) of the same compound?
**A.** Its Interferon production is “induction of interferon synthesis comparable to MP-3”.

**Q.** Which results are given for `CC(C)[C@H](N)C(=O)N[C@H](C(=O)N[C@@H](Cc1ccc(O)cc1)C(=O)N1CCC[C@H]1C(=O)N[C@@H](CC(=O)O)C(=O)O)C(C)C` [MP-5, VVYPD] (H-VVYPD-OH; N-terminus and C-terminus assumed)?
**A.** Concentration that completely abrogated destructive influence of the virus on L929 cells ([2]; then 100 TCID50 of EMV): ≥ 16 µg/mL; Influence on HIV replication (HIV): did not influence; Interferon production (L-41 human cell line; 1 μg/ml): active; Interferon production ([4]; 0.001 μg/ml): induced interferon

**Q.** `CC(C)[C@H](N)C(=O)N[C@@H](CC(=O)O)C(=O)N1CCC[C@H]1C(=O)N1CCC[C@H]1C(=O)O` [MP-6, VDPP] (H-VDPP-OH; N-terminus and C-terminus assumed) was tested. Which “Concentration that completely abrogated destructive influence of the virus on L929 cells” value ([2]; then 100 TCID50 of EMV) did it give?
**A.** Its value is no less than 4 µg/mL.

**Q.** What about the “Influence on HIV replication” value (HIV) of the same compound?
**A.** The value was “did not influence”.

**Q.** And the Interferon production (L-41 human cell line; concentration not given)?
**A.** Its Interferon production is “relatively small amounts of interferon”.

**Q.** What about the Interferon production ([4]; concentration not given) of the same compound?
**A.** Its Interferon production is “relatively small amounts of interferon”.
